Measured values taken from publication PMC11320359.

Protein sequences, listed by entry. Tags and fused reporters are not part of them. Lines headed by an entry give the natural chain unless they say otherwise; changes in a name come on top.
UniProt Q8K4Z2: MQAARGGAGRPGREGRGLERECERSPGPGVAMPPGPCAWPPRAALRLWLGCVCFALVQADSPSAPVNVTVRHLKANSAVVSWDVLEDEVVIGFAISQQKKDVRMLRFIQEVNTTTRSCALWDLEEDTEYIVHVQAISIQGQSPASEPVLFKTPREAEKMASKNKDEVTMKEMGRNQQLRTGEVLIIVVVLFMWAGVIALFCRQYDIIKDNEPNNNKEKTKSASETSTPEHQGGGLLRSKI
UniProt P49817: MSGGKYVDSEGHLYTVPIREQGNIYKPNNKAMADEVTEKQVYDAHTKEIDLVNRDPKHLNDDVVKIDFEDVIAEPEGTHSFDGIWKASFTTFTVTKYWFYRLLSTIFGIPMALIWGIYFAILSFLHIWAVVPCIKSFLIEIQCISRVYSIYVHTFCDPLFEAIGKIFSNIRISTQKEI

How the values were obtained:
[1] = molecular target: GST-irisin recombinant protein (UniProt Q8K4Z2); assay: pull-down; GST-irisin held on GST magnetic beads; target protein added, 30 min at room temperature; binding buffer 140 mM NaCl, 2.7 mM KCl, 10 mM Na2HPO4, 1.8 mM KH2PO4, pH 7.4; eluted with 10 mM reduced glutathione; Western blot for Cav1; GST as negative control; only the target purified
[2] = molecular target: Fibronectin Type III Domain Containing 5 / irisin (endogenous in osteoblasts) (mouse (endogenous in MC3T3-E1)) (UniProt Q8K4Z2); assay: co-IP; whole-cell lysates of osteoblasts (3 mg protein) with 4 ug primary antibody, overnight at 4°C, Proteintech kit PK10007; Western blot; endogenous proteins
[3] = molecular target: Fibronectin Type III Domain Containing 5 / irisin (endogenous in osteoblasts) (mouse (endogenous in MC3T3-E1)) (UniProt Q8K4Z2); assay: as above; remark: listed apart in the source

Molecule: Caveolin 1 (prey of the GST-irisin pull-down) (from UniProt P49817 1-178)
- binding [1]: binds

Molecule: Caveolin 1 (endogenous in osteoblasts) (from UniProt P49817 1-178)
- binding [2]: binds

B1: Heme oxygenase 1 (endogenous in osteoblasts) (enzyme, UniProt P14901 1-289)
chain: MERPQPDSMPQDLSEALKEATKEVHIQAENAEFMKNFQKGQVSREGFKLVMASLYHIYTALEEEIERNKQNPVYAPLYFPEELHRRAALEQDMAFWYGPHWQEIIPCTPATQHYVKRLHEVGRTHPELLVAHAYTRYLGDLSGGQVLKKIAQKAMALPSSGEGLAFFTFPNIDSPTKFKQLYRARMNTLEMTPEVKHRVTEEAKTAFLLNIELFEELQVMLTEEHKDQSPSQMASLRQRPASLVQDTAPAETPRGKPQISTSSSQTPLLQWVLTLSFLLATVAVGIYAM
- binding [3]: binds weakly

Like-named read-outs stand apart in the source and are kept apart here. Results are given in words; binding and its absence hold for the method and conditions named. In cells and extracts the contact can be indirect. Binding calls can cover weak binding; strength is not graded here.
